# Laboratory results taken from article PMC4859069 (2016).
# Assays:
# [1] = target: Flag-14-3-3ɛ (Drosophila); assay: co-IP; S2 cells co-transfected with Flag-tagged 14-3-3 (or Flag-GFP) and V5-Tctp or V5-Rheb; CHAPS-based lysis buffer; anti-Flag on G-sepharose beads, overnight at 4 °C; blot with anti-V5
# GST-14-3-3ɛ (Drosophila) = assay: pull-down; 20 μg of each MBP- and GST-tagged protein in 500 μl pull-down buffer (20 mM Tris pH 7.5, 150 mM NaCl, 0.5 mM EDTA, 10% glycerol, 0.1% Triton X-100, 1 mM DTT), overnight at 4 °C with Glutathione Excellose resin; blot with anti-MBP; both purified
Binder,binding [1],binding (GST-14-3-3ɛ (Drosophila))
"V5-Tctp (protein, UniProt Q9VGS2 1-172) MKIYKDIITGDEMFADTYKMKLVDDVIYEVYGKLITRQGDDIKLEGANASAEEADEGTDITSESGVDVVLNHRLTECFAFGDKKSYTLYLKDYMKKVLAKLEEKSPDQVDIFKTNMNKAMKDILGRFKELQFFTGESMDCDGMVALVEYREINGDSVPVLMFFKHGLEEEKC",binds,
MBP-Tctp (protein) MKIYKDIITGDEMFADTYKMKLVDDVIYEVYGKLITRQGDDIKLEGANASAEEADEGTDITSESGVDVVLNHRLTECFAFGDKKSYTLYLKDYMKKVLAKLEEKSPDQVDIFKTNMNKAMKDILGRFKELQFFTGESMDCDGMVALVEYREINGDSVPVLMFFKHGLEEEKC,,binds
"V5-Rheb (protein, UniProt Q9VND8 1-182) MPTKERHIAMMGYRSVGKSSLCIQFVEGQFVDSYDPTIENTFTKIERVKSQDYIVKLIDTAGQDEYSIFPVQYSMDYHGYVLVYSITSQKSFEVVKIIYEKLLDVMGKKYVPVVLVGNKIDLHQERTVSTEEGKKLAESWRAAFLETSAKQNESVGDIFHQLLILIENENGNPQEKSGCLVS",binds,
"MBP–Rheb (protein, UniProt Q9VND8 1-182) MPTKERHIAMMGYRSVGKSSLCIQFVEGQFVDSYDPTIENTFTKIERVKSQDYIVKLIDTAGQDEYSIFPVQYSMDYHGYVLVYSITSQKSFEVVKIIYEKLLDVMGKKYVPVVLVGNKIDLHQERTVSTEEGKKLAESWRAAFLETSAKQNESVGDIFHQLLILIENENGNPQEKSGCLVS",,binds

# Results are given in words; binding and its absence hold for the method and conditions named. A result given as binding can be weak or reduced; the word gives no strength. Where a sequence is shown, tags or fusion partners need not be part of it. For some of these results: In cells and extracts the contact can be indirect.
